These are yes or no findings as the source states them, for the method shown. Binding seen in cells or lysates may run through a third protein. A result given as binding can be weak or reduced; the word gives no strength. For part of these data: Sequences can lack the tags named with a protein. Each block holds one molecule with its values, some of them ahead of it.
What was measured:
[1] = target: T1, HA-tagged AGO2 (Drosophila) (UniProt Q9VUQ5); experiment: co-IP; HA antibody IP from S2 cells transfected with HA-tagged p68, VIG or AGO2, immunoblotting (reciprocal IP-Western)
T1 sequence: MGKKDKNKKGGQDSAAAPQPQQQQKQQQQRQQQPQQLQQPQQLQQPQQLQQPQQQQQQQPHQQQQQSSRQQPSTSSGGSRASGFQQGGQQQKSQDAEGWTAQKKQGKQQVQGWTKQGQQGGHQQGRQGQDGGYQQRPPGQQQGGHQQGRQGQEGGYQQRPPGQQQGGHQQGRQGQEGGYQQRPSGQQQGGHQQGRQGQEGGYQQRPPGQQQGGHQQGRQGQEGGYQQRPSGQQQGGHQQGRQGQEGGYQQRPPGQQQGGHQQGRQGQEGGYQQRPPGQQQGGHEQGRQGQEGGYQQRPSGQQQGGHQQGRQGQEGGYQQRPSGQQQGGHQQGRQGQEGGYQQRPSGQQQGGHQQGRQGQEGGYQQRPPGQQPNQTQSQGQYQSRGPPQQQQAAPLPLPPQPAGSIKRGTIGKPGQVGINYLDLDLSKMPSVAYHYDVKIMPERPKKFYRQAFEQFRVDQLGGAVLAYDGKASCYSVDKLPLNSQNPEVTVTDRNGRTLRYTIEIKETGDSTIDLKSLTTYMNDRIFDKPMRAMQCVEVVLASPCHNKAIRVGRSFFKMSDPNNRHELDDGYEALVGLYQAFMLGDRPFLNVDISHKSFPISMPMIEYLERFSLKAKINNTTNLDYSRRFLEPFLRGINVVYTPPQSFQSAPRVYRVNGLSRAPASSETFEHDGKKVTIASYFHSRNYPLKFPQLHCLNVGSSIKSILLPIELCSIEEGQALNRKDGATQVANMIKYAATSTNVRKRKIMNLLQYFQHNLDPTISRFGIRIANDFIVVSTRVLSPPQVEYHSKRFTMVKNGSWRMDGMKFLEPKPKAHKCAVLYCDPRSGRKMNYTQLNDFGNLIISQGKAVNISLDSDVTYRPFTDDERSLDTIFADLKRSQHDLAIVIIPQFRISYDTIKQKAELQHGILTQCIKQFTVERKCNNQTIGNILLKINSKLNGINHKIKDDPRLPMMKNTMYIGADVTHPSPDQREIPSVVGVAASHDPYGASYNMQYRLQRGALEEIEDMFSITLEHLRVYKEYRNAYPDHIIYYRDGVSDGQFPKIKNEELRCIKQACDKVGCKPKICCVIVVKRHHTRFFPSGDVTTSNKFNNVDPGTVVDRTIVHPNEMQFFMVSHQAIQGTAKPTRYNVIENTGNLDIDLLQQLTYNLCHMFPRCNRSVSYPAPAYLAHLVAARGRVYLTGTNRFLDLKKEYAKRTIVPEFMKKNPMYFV

The chains behind the UniProt entries cited, without tags or fusion partners. Where a name states a change or a piece, a line headed by the entry shows the natural chain unless it says otherwise.
UniProt Q9VUH8: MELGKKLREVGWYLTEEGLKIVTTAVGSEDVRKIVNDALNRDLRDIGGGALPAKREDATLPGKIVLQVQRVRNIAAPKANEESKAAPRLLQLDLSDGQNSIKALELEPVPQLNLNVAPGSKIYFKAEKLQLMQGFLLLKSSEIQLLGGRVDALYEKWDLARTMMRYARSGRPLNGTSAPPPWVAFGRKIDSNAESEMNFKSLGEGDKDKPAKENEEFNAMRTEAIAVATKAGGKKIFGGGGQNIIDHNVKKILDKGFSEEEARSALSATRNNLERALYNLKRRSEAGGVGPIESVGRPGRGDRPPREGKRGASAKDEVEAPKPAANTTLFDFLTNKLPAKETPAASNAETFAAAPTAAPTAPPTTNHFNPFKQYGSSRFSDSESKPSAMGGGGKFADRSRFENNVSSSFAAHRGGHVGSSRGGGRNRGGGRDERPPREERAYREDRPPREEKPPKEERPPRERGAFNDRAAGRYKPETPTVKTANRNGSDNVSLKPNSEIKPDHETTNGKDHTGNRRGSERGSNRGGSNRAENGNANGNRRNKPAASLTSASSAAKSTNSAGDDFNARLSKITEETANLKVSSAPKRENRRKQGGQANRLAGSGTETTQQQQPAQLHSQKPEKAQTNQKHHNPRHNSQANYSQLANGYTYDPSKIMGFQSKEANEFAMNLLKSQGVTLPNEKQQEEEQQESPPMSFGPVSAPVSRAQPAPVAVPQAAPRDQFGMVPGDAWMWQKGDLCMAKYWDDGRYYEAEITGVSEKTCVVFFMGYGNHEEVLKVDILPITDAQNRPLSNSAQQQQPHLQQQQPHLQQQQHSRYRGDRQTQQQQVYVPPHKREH

[2] = target: T2, HA-tagged VIG (Drosophila) (UniProt Q9V426); experiment: as above
T2 sequence: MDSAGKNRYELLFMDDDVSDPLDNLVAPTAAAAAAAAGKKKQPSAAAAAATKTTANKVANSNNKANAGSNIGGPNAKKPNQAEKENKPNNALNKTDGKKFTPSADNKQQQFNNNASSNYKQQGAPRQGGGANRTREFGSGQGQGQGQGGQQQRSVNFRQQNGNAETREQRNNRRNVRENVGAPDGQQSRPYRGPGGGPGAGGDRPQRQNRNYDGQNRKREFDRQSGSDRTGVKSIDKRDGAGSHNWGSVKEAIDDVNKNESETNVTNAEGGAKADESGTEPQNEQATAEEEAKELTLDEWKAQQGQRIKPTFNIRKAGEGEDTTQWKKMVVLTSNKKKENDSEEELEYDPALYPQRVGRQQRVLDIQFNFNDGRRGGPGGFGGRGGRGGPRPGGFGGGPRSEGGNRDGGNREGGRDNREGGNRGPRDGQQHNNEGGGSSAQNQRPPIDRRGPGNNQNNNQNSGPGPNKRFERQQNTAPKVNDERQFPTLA

[3] = target: Flag full-length TDRD3 (Drosophila); experiment: co-IP; Flag IP-Western of different Flag-TDRD3 constructs and their interacting partners from transfected S2 cells

binding [1]: binds | binding [2]: binds
Molecule: Drosophila TDRD3 (Tudor domain-containing 3) (from UniProt Q9VUH8)

binding [3]: binds
B1: Argonaute 2 (AGO2) (protein, UniProt Q9VUQ5 1-1214)
chain: T1 sequence

From article PMC6251927
